Holding throughout (assay): co-IP; FLAG-tagged and V5-tagged proteins coexpressed in HEK293T cells (calcium phosphate, 24 h); lysis in 1% Triton X-100, 20 mM Tris pH 7.5, 50 mM NaCl, 50 mM NaF, 15 mM Na4P2O7, 0.1 mM EDTA; anti-FLAG M2 agarose beads 2 h; Western blot with anti-V5 and anti-FLAG
One assay has as its target T1, WDR19 (UniProt Q8NEZ3).
T1 sequence: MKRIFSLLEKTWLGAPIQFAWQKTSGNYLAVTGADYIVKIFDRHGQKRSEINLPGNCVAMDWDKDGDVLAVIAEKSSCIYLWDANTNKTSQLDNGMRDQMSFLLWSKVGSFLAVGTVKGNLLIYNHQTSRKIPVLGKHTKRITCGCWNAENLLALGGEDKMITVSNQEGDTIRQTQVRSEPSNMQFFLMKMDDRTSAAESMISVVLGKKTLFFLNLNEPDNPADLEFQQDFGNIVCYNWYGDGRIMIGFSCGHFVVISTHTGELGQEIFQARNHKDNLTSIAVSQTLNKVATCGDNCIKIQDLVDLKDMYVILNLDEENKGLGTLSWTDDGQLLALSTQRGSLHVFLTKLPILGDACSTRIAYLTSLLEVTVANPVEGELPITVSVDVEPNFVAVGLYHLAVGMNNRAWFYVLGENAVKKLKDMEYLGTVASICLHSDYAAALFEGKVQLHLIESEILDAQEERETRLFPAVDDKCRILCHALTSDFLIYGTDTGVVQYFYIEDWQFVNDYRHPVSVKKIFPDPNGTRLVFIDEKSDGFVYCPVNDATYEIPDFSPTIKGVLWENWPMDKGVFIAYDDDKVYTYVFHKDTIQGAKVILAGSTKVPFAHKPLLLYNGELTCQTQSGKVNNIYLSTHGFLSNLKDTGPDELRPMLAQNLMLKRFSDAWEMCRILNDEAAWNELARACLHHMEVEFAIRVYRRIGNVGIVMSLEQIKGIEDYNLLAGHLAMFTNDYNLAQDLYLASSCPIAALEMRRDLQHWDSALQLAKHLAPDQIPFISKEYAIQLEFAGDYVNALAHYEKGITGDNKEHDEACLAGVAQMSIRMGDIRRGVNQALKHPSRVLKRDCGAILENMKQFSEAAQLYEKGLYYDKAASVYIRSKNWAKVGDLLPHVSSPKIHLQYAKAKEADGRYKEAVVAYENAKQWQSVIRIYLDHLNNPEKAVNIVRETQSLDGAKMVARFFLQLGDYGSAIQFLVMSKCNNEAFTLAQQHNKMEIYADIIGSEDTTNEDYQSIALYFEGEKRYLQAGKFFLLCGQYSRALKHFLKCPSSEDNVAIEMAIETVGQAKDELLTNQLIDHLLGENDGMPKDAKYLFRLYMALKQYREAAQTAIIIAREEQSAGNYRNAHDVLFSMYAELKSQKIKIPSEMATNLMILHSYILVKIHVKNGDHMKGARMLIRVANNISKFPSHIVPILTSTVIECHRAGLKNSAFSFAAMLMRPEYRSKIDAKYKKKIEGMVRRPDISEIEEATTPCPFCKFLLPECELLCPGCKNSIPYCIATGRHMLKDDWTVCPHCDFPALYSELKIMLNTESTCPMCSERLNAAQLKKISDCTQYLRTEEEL

Sequences of proteins named here, by UniProt entry; tags and fusion partners are left off. Residues count along the entry.
UniProt Q17R60, residues 21-797: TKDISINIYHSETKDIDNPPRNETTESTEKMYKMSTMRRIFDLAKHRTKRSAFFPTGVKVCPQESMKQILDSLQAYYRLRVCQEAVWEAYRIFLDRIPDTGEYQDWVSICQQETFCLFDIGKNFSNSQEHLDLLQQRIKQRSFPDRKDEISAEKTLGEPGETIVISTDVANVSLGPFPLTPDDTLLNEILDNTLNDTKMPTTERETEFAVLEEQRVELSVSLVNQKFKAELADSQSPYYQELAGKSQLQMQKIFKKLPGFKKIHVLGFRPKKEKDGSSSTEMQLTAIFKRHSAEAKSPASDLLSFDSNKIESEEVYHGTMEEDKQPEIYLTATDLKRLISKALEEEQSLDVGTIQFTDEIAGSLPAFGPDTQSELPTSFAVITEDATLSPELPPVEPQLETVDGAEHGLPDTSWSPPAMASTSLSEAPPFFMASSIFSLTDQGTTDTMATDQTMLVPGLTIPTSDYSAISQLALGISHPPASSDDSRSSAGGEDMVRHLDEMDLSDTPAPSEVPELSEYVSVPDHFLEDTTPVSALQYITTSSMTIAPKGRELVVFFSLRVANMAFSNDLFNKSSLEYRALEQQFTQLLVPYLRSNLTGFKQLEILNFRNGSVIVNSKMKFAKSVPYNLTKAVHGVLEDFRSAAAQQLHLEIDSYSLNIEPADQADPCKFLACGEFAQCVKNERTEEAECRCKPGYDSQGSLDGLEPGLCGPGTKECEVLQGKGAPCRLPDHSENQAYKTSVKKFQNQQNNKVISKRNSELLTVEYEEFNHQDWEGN

The target of the next assay is T2, TTC21B (UniProt Q7Z4L5).
T2 sequence: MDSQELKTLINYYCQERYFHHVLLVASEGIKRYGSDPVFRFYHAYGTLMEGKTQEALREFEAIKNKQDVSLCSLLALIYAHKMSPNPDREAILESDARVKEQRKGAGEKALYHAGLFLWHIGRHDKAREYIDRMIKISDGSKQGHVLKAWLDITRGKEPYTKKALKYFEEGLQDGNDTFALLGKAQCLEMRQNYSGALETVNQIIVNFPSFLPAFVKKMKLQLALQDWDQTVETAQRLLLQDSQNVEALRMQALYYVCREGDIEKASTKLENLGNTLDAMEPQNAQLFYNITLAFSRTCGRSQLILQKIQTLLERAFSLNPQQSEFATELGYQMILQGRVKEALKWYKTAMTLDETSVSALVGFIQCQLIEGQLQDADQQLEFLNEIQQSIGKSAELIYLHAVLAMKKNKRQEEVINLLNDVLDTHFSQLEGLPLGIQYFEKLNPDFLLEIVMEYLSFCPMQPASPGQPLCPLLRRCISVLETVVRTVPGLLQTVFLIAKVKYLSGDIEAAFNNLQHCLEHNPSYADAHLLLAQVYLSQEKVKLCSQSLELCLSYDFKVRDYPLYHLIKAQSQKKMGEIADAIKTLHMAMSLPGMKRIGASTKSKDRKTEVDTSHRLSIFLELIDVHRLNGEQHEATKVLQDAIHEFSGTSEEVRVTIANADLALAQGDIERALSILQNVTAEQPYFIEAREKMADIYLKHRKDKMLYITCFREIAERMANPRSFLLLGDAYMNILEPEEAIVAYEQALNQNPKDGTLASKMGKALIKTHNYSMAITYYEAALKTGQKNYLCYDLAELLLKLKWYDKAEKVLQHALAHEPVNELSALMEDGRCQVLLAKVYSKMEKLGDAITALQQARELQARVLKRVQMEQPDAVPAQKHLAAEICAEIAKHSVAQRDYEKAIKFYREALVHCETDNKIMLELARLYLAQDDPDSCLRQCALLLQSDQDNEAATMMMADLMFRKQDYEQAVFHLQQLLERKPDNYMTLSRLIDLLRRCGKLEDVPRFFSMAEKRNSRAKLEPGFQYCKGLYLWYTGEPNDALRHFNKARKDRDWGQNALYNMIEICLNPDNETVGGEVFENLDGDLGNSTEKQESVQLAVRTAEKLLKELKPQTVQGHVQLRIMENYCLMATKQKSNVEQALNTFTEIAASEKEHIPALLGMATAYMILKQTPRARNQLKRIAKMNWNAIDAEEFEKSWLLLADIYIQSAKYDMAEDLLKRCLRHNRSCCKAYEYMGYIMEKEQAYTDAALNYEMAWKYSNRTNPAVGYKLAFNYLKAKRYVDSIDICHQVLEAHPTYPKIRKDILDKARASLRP

Assay [1] addresses FLAG-tagged IMPG1 (interphotoreceptor matrix glycoprotein) (UniProt Q17R60).

Here are results for 2 molecules from publication PMC6166740.

No constants are given. Whether binding was seen depends on the method and setting. Binding seen in cells or lysates may run through a third protein. Some binding calls cover weakened binding; strength is not graded here. Sequences can lack the tags named with a protein.

B1: V5-tagged NME3 (enzyme, UniProt Q13232 1-169)
chain: MICLVLTIFANLFPAACTGAHERTFLAVKPDGVQRRLVGEIVRRFERKGFKLVALKLVQASEELLREHYAELRERPFYGRLVKYMASGPVVAMVWQGLDVVRTSRALIGATNPADAPPGTIRGDFCIEVGKNLIHGSDSVESARREIALWFRADELLCWEDSAGHWLYE
Regarding B1, the binding result in the assay with WDR19 and with TTC21B was “binds” each time.

B2: V5-tagged ANKS6 (ankyrin repeat and sterile alpha motif domain-containing 6) (protein, UniProt Q68DC2 1-871)
chain: MGEGGLPPAFQLLLRACDQGDTETARRLLEPGAAEPAERGAEPEAGAEPAGAEVAGPGAAAAGAVGAPVPVDCSDEAGNTALQFAAAGGHEPLVRFLLRRGASVNSRNHYGWSALMQAARFGHVSVAHLLLDHGADVNAQNRLGASVLTVASRGGHLGVVKLLLEAGAFVDHHHPSGEQLGLGGSRDEPLDITALMAAIQHGHEAVVRLLMEWGADPNHAARTVGWSPLMLAALTGRLGVAQQLVEKGANPDHLSVLEKTAFEVALDCKHRDLVDYLDPLTTVRPKTDEEKRRPDIFHALKMGNFQLVKEIADEDPSHVNLVNGDGATPLMLAAVTGQLALVQLLVERHADVDKQDSVHGWTALMQATYHGNKEIVKYLLNQGADVTLRAKNGYTAFDLVMLLNDPDTELVRLLASVCMQVNKDKGRPSHQPPLPHSKVRQPWSIPVLPDDKGGLKSWWNRMSNRFRKLKLMQTLPRGLSSNQPLPFSDEPEPALDSTMRAAPQDKTSRSALPDAAPVTKDNGPGSTRGEKEDTLLTTMLRNGAPLTRLPSDKLKAVIPPFLPPSSFELWSSDRSRTRHNGKADPMKTALPQRASRGHPVGGGGTDTTPVRPVKFPSLPRSPASSANSGNFNHSPHSSGGSSGVGVSRHGGELLNRSGGSIDNVLSQIAAQRKKAAGLLEQKPSHRSSPVGPAPGSSPSELPASPAGGSAPVGKKLETSKRPPSGTSTTSKSTSPTLTPSPSPKGHTAESSVSSSSSHRQSKSSGGSSSGTITDEDELTGILKKLSLEKYQPIFEEQEVDMEAFLTLTDGDLKELGIKTDGSRQQILAAISELNAGKGRERQILQETIHNFHSSFESSASNTRAPGNSPCA
Take B2: the binding result in assay [1] is listed as “binds”.
